These results are taken from the supplement of paper PMC11006884.

By UniProt entry, the sequences of proteins in these tests, tags left out. Where a name states a change or a piece, a line headed by the entry shows the natural chain unless it says otherwise.
UniProt Q96C19: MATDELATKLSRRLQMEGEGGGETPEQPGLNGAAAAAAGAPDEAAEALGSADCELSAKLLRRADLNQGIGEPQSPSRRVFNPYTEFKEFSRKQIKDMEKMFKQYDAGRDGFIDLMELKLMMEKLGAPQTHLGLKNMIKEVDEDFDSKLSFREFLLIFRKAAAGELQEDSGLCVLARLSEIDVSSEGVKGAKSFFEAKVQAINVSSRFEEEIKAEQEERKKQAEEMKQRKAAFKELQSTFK
UniProt Q93074, whole entry, looked up: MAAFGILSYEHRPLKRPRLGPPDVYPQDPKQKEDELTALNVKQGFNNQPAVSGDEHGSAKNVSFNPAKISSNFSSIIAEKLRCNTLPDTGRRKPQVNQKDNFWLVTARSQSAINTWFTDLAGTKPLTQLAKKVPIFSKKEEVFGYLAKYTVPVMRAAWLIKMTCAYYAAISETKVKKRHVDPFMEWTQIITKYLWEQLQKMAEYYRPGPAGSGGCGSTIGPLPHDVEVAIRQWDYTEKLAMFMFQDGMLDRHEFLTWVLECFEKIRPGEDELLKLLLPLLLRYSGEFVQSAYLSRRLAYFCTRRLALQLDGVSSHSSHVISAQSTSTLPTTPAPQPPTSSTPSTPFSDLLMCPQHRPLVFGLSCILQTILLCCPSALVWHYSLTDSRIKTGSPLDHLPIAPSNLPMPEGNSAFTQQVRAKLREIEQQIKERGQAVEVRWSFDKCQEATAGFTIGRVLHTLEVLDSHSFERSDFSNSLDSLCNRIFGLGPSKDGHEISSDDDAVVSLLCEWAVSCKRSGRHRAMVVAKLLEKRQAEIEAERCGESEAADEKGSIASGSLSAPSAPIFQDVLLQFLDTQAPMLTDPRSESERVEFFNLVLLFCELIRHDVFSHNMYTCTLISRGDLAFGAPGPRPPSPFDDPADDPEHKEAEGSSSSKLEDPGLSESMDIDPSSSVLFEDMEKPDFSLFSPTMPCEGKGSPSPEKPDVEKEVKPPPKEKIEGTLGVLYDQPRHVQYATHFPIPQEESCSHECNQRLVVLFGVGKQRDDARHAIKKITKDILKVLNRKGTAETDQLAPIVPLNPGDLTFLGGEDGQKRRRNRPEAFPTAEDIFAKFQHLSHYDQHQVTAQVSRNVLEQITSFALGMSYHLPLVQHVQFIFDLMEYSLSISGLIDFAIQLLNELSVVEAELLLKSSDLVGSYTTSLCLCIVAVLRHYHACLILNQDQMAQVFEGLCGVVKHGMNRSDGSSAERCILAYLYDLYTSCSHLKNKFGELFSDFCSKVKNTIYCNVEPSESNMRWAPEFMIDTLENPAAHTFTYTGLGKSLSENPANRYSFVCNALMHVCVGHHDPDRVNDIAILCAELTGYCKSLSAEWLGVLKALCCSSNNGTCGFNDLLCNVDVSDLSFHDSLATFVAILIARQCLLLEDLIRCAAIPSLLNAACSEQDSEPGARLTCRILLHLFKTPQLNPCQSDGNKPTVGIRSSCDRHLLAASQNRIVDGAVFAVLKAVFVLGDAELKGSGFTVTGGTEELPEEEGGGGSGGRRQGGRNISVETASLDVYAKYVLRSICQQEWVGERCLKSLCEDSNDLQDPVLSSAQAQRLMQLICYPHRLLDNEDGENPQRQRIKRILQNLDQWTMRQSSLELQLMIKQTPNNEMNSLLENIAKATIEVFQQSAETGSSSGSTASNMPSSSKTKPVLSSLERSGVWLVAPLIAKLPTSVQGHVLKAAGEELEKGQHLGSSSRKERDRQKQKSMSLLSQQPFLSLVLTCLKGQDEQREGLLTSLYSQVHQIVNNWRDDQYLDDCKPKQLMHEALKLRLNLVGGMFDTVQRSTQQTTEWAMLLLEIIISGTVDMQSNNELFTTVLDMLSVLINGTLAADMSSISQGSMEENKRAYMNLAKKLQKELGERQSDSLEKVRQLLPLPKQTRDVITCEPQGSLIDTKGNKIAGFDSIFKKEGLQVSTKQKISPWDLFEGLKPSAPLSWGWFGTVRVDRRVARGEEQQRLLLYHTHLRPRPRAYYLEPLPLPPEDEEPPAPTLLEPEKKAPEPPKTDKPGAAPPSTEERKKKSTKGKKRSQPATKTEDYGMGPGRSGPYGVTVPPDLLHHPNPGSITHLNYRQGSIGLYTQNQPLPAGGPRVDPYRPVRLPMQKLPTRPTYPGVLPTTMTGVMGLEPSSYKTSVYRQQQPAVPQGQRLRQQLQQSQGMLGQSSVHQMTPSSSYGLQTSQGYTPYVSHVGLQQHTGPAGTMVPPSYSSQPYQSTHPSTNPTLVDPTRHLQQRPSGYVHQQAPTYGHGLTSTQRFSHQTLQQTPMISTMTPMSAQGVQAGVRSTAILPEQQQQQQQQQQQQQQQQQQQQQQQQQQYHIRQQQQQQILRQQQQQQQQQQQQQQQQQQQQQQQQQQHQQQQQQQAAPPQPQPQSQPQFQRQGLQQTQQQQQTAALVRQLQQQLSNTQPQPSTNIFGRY
UniProt Q92841: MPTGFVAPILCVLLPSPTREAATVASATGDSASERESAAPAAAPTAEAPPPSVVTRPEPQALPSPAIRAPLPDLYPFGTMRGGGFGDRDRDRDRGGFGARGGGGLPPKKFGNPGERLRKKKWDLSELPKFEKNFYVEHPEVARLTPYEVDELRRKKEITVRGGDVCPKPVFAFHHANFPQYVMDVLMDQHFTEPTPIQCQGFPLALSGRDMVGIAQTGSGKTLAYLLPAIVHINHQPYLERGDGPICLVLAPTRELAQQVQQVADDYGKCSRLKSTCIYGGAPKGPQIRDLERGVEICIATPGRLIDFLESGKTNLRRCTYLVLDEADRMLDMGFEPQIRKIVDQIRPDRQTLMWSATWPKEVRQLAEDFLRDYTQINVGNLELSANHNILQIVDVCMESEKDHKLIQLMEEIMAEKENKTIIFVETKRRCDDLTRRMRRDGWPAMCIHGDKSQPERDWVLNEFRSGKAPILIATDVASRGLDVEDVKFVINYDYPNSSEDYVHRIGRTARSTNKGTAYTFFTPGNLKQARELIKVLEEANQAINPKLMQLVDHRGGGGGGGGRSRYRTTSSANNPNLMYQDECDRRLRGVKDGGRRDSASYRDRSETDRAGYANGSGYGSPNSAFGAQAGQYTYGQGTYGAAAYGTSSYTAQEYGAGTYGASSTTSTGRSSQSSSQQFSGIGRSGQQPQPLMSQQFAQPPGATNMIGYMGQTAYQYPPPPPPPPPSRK
UniProt Q96EP0: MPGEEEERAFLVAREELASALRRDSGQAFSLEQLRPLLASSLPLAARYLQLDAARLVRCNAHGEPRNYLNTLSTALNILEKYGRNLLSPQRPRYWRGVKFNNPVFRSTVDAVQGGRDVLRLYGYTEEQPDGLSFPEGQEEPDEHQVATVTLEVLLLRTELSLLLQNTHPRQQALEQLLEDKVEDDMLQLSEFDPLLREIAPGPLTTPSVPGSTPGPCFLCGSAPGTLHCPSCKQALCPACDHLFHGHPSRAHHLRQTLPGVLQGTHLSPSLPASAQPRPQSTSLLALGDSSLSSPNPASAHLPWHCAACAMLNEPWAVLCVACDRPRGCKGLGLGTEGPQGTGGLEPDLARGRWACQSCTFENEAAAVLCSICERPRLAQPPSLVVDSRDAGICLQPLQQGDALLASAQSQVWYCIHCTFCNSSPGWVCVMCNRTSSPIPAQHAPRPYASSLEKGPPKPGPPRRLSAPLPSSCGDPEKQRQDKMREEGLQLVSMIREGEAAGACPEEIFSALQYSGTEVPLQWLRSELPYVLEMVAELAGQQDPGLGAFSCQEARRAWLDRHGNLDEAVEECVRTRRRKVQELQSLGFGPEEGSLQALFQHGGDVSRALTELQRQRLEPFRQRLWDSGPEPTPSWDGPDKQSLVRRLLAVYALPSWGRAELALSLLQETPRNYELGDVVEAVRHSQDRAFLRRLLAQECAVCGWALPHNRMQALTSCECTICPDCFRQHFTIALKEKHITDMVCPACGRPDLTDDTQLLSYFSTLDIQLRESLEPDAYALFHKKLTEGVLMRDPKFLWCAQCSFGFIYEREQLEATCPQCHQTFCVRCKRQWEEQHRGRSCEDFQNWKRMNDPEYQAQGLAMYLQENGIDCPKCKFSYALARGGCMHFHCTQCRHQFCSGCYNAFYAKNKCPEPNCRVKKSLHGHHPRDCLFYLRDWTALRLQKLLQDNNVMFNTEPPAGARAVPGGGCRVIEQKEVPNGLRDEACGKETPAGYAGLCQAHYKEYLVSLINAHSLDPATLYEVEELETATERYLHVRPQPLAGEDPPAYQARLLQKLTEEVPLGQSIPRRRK
UniProt Q92688: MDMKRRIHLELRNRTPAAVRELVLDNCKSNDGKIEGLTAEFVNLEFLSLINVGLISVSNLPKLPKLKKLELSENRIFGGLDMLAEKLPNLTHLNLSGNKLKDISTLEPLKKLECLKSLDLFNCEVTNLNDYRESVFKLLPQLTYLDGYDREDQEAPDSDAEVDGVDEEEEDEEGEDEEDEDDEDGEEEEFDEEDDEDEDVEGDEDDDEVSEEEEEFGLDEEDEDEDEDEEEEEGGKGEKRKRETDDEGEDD
UniProt Q92990: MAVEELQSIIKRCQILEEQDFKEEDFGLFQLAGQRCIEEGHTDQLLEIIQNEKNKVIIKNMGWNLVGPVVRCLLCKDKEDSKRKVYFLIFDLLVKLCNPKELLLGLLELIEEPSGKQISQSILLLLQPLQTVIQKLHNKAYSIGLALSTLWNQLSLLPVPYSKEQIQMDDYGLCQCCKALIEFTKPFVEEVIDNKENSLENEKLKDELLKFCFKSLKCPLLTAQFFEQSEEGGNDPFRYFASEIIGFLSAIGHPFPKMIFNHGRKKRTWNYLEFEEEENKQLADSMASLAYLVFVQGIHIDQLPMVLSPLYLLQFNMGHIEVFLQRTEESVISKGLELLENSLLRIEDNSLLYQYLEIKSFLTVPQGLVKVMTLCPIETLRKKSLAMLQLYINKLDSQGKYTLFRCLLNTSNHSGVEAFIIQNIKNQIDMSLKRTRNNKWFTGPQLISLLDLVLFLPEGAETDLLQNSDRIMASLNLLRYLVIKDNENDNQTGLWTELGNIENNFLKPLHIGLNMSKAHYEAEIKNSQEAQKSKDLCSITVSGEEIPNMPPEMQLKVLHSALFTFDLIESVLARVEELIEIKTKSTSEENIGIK
UniProt Q92900: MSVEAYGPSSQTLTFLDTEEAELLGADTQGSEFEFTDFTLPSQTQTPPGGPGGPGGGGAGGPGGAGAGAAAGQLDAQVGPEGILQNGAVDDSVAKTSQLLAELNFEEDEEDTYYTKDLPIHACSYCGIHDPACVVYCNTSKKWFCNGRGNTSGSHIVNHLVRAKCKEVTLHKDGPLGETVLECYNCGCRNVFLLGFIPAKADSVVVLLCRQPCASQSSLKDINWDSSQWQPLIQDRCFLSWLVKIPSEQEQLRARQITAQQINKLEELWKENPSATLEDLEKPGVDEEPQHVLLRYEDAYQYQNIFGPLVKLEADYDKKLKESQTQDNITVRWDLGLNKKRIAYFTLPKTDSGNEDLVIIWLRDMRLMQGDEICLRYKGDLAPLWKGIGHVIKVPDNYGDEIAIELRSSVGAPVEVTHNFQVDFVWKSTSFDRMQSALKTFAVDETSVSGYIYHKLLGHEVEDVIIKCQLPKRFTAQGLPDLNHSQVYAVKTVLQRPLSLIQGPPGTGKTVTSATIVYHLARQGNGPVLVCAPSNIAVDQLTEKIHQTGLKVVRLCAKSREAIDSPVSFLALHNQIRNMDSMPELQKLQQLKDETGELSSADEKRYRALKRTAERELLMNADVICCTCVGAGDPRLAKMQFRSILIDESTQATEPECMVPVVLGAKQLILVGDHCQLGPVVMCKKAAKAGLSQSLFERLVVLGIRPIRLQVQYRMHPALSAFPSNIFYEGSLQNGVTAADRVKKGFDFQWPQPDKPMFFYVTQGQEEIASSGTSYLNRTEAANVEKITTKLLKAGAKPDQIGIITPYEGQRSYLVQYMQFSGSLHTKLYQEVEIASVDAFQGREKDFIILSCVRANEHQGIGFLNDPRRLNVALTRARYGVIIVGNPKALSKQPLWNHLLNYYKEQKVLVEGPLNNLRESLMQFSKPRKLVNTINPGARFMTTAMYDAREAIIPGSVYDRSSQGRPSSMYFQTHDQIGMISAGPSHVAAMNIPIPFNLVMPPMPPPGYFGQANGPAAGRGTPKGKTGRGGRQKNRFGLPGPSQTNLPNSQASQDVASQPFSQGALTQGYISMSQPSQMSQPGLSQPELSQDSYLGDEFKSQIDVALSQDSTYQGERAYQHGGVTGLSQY

The list shows a part of the results, in another mix than the full data. This is a noisy data set.

Compound in this assay: COC(=O)/C=C/c1ccccc1 [methyl cinnamate]
Description: log2 ratio of iodoacetamide-alkyne labeling of the cysteine site, DMSO over compound (competition); higher = stronger covalent engagement of the cysteine by the compound, active = 1 or more. The settings on record: 500 µM; treatment time 1 h; system: HEK293T cell lysate. In a few lines:
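Reporter intensities give each cysteine's log2 competition ratio as the mean of control channels over the mean of compound channels. The samples were HEK293T lysate (2 mg/mL) given vehicle or electrophile (500 µM, 1 h, ambient temperature), then iodoacetamide alkyne (1 h), followed by click coupling to sCIP-TMT reagents, pooling, trypsin digestion overnight at 37 °C, streptavidin enrichment, acid elution, Orbitrap Eclipse LC-MS/MS with FAIMS and FragPipe quantification. Duplicate channels and three replicates were run, and cysteines quantified in only one replicate were discarded.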
Consider USP9X C1174 (UniProt Q93008), for which the “log2 ratio of iodoacetamide-alkyne labeling” value (“log2 ratio” below) is inactive: 0.0539. The same measure for EFHD2 C53 (UniProt Q96C19): inactive: 0.374; for MED12 C1006 (UniProt Q93074): inactive: 0.296; for ARHGEF2 C335 (UniProt Q92974): inactive: 0.0596. The result for RPL36AL C15 (UniProt Q969Q0) reads inactive: 0.0617. The same measure for USP9X C2075 (UniProt Q93008): inactive: 0.0972; for OTUD5 C519 (UniProt Q96G74): inactive: 0.101.

For PYCR2 C95 (UniProt Q96C36), the “log2 ratio” value was inactive: -0.471. The same measure for AKT1S1 C61 (UniProt Q96B36): inactive: 0.0696; for NT5C3B C210 (UniProt Q969T7): inactive: 0.579.

With UniProt Q92616_C1535, the “log2 ratio” value was inactive: -0.0175. GBF1 C1272 (UniProt Q92538): the “log2 ratio” value was inactive: 0.0974. The result for TONSL C830 (UniProt Q96HA7) reads inactive: 0.0334; that for UniProt Q92841_C319, inactive: 0.127. The same measure for GBF1 C661 (UniProt Q92538): inactive: 0.238; for ZC3HAV1L C121 (UniProt Q96H79): inactive: 0.0478. The result for SAAL1 C248 (UniProt Q96ER3) reads inactive: 0.542; that for PTCD3 C642 (UniProt Q96EY7), inactive: 0.278. Consider RNF31 C504 (UniProt Q96EP0), for which the “log2 ratio” value is inactive: 0.18. The same measure for UniProt Q92841_C277: inactive: 0.274; for AKAP1 C64 (UniProt Q92667): inactive: 0.235.

Turning to ANP32B C114 (UniProt Q92688), the “log2 ratio” value is inactive: -0.024. Turning to SLC7A6OS C166 (UniProt Q96CW6), the “log2 ratio” value is inactive: 0.465.

For UniProt Q969X6_C21, the “log2 ratio” value is inactive: -0.0137. The same measure for DDX27 C259 (UniProt Q96GQ7): inactive: 0.169.

With CREBBP C1199 (UniProt Q92793), the “log2 ratio” value is inactive: 0.143. The result for GLMN C406 (UniProt Q92990) reads inactive: -0.145; that for UPF1 C657 (UniProt Q92900), inactive: -0.0169.

Consider ARHGEF2 C383 (UniProt Q92974), for which the “log2 ratio” value is inactive: 0.00267.

As for TAF15 C365 (UniProt Q92804), the “log2 ratio” value was inactive: 0.0886. For SMARCD1 C492 (UniProt Q96GM5), the “log2 ratio” value was inactive: 0.126. Take GCDH C115 (UniProt Q92947): the “log2 ratio” value is inactive: -0.194.

For UniProt Q92841_C584, the “log2 ratio” value was inactive: 0.176. Regarding DAZAP1 C85 (UniProt Q96EP5), the “log2 ratio” value is inactive: 0.0538. TNPO1 C683 (UniProt Q92973): the “log2 ratio” value was inactive: 0.152.

Consider CCDC97 C17 (UniProt Q96F63), for which the “log2 ratio” value was inactive: 0.233. Turning to CMBL C10 (UniProt Q96DG6), the “log2 ratio” value is inactive: -0.0267.
